From PubChem BioAssay (EPA / NIEHS)
Several values for one entry are separate records, joined by “and”; a condition that tells them apart may be missing. Equal values may be shown once. For some assays here: Most of the hits are listed elsewhere, so they are rarer here than in the full data. Results filed as inconclusive are left out. Some compounds were tested as several samples or in several runs, with calls that do not always agree. The list shows a part of the results, in another mix than the full data. Activity calls are given as the source filed them. Rule for the calls, unless noted: active = hit-call score of the fitted dose curve at least 0.9, where 1 is the maximum; inactive = score below 0.9.

Chains of the proteins cited; added tags and fusions are not shown. Lines headed by an entry give the natural chain unless they say otherwise; changes in a name come on top.
UniProt P11712, whole entry, looked up: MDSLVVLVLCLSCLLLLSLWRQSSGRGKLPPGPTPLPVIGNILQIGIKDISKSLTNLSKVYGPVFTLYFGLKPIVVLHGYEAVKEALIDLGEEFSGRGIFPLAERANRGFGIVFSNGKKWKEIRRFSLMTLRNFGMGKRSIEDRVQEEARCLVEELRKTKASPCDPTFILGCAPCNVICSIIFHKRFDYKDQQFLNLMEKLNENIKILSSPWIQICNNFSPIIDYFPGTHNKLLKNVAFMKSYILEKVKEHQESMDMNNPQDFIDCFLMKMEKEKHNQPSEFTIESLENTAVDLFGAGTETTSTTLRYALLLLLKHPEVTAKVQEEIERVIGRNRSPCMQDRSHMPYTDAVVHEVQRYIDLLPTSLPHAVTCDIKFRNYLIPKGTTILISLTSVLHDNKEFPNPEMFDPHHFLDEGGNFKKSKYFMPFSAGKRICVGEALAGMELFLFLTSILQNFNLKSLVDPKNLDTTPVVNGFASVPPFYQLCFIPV
UniProt P56817: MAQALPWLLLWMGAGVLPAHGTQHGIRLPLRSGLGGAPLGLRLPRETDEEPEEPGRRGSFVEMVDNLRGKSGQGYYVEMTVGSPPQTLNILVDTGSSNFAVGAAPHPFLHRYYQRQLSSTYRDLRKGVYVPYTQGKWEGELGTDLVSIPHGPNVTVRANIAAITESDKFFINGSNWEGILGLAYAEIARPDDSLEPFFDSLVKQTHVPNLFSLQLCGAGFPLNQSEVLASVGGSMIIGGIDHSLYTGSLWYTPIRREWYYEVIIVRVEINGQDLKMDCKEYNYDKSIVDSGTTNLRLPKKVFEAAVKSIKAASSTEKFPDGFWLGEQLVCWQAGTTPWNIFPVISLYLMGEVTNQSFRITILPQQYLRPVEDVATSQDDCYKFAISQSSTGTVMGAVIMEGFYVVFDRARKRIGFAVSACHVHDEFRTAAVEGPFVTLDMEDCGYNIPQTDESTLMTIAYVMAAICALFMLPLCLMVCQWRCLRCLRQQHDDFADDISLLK
UniProt P17948, whole entry, looked up: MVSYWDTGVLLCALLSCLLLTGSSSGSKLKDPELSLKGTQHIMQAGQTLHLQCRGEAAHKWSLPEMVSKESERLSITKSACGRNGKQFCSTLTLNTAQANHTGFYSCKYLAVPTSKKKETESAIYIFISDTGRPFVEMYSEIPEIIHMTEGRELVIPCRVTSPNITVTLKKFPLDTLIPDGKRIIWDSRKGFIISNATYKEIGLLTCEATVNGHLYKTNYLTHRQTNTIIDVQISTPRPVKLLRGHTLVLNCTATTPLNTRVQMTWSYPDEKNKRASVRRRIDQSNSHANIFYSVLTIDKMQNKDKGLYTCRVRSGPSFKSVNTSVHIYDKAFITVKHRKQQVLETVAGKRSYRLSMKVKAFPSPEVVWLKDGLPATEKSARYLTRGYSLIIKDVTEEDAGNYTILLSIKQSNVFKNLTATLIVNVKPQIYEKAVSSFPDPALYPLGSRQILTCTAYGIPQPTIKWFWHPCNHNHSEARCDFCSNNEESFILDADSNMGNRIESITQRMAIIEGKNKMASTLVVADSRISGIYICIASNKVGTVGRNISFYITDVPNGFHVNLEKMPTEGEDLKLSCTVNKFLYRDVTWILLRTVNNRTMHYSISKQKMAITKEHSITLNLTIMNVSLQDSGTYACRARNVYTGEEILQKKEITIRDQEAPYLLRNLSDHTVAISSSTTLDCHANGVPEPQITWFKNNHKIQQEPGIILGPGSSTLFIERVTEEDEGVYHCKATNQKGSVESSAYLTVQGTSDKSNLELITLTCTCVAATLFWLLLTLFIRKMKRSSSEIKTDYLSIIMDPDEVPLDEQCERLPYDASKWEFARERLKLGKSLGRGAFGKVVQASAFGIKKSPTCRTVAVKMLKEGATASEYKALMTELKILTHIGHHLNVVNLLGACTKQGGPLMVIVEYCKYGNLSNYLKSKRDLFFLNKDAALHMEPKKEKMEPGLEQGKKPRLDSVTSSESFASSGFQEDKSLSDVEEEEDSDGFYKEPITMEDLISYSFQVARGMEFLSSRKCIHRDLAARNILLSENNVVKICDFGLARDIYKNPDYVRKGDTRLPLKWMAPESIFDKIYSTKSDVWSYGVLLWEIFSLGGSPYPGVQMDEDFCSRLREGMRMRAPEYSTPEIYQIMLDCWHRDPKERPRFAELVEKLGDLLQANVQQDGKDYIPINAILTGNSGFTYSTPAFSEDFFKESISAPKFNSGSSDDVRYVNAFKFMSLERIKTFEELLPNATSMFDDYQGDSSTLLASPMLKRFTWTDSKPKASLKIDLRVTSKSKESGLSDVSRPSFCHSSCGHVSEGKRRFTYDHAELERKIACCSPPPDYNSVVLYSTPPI
UniProt P35372, whole entry, looked up: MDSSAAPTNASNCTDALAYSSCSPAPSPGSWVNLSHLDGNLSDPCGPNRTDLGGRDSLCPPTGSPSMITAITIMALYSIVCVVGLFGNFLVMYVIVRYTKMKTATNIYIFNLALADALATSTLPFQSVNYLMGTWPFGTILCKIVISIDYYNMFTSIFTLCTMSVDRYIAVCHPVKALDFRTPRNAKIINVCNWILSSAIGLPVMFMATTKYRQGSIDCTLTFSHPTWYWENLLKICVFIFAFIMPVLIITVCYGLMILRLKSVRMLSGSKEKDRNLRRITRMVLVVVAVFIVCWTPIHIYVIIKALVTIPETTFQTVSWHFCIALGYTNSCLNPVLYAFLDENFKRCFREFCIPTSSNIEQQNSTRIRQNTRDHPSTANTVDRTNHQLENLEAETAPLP
UniProt O70528: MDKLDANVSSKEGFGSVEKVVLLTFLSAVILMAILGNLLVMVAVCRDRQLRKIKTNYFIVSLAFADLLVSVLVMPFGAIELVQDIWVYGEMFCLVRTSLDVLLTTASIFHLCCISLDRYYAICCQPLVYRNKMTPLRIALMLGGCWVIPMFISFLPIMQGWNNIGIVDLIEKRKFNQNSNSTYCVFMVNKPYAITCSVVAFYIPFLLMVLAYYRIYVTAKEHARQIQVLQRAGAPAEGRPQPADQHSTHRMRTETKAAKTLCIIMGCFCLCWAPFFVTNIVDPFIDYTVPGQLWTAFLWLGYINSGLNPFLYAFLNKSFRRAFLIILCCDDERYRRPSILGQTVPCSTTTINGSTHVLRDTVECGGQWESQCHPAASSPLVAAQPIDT
UniProt P22909, whole entry, looked up: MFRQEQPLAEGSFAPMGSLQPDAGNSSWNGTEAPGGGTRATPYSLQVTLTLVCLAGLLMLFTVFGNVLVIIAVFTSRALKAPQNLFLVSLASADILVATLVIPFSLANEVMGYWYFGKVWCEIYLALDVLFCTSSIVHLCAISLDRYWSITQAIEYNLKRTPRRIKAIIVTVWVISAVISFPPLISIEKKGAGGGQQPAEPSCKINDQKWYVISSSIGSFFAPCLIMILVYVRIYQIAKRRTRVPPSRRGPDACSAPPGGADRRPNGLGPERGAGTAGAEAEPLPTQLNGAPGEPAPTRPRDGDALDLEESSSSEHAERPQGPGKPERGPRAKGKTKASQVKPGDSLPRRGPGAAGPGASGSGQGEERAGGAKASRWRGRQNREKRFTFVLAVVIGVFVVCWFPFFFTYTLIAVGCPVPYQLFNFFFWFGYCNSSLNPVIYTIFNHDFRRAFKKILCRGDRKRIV
UniProt P28646: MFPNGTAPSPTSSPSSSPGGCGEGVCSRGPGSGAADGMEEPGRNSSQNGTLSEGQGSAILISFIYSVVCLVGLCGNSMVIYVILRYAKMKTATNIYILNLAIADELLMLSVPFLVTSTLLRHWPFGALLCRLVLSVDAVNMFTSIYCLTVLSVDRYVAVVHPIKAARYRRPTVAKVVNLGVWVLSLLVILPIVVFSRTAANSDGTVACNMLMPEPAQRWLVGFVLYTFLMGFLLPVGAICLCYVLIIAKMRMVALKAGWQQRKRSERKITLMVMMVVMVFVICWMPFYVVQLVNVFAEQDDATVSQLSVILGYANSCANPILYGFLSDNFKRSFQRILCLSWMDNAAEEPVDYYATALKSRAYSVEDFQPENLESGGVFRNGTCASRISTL

Experiments:
[1] = read-out: Pselectin, SELP (gene 6403); experiment: BSK_4H_Pselectin: BioMAP Diversity Plus: 4H Assay for Pselectin Biomarker Activity (AID 2283026); conditions: actives raise or lower the signal; primary human endothelial cells (HUVEC)
Method in brief: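 Endothelial primary cells (human umbilical vein) are dosed, incubated 24 h, and assayed for surface P-selectin by ELISA; responses in either direction are fitted relative to the DMSO negative control.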

[2] = BSK_BE3C_SRB: Viability Assessment in the BioMAP Diversity Plus: BE3C Assay (AID 2283028); conditions: primary human bronchial epithelial cells;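 note: measured 24 h after chemical dosing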
Method in brief: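 SRB total-protein staining (0.1%, after TCA fixation) of chemically dosed human bronchial epithelial primary cells at 24 h; DMSO serves as the negative control for bidirectional curve fitting.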

[3] = read-out: Vascular endothelial growth factor receptor 2 (Homo sapiens) (UniProt P35968); experiment: BSK_4H_VEGFRII: BioMAP Diversity Plus: 4H Assay for Vascular endothelial growth factor receptor 2 (VEGFR2) Biomarker Activity (AID 2283031); conditions: actives raise or lower the signal; primary human endothelial cells (HUVEC)
Method in brief: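 In this multiplexed HUVEC system, biomarker ELISA was performed after 24 h chemical exposure. Parallel SRB staining (TCA fixation, 560 nm) tracked cytotoxicity; DMSO served as baseline.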

[4] = read-out: Monokine induced gamma interferon (MIG), CXCL9 (gene 4283); experiment: BSK_BE3C_MIG: BioMAP Diversity Plus: BE3C Assay for Monokine induced gamma interferon (MIG) Biomarker Activity (AID 2283035); conditions: actives raise or lower the signal; primary human bronchial epithelial cells;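 note: MIG protein measured by ELISA in BE3C cultures after 24 h of dosing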
Method in brief: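 ELISA quantified MIG after 24 h exposure of primary bronchial epithelial cultures, analysed in both directions relative to DMSO. Cytotoxicity tracked in parallel cultures by sulforhodamine B staining.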

[5] = read-out: Plasminogen activator inhibitor-1 (PAI1), SERPINE1 (gene 5054); experiment: BSK_BE3C_PAI1: BioMAP Diversity Plus: BE3C Assay for Plasminogen activator inhibitor-1 (PAI1) Biomarker Activity (AID 2283037); conditions: actives raise or lower the signal; primary human bronchial epithelial cells
Method in brief: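 Values derive from bidirectional fitting against DMSO baseline of PAI-1 levels, measured by ELISA in human bronchial epithelial cells 24 h after compound addition.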

[6] = read-out: Interleukin-8 (IL8), CXCL8 (gene 3576); experiment: BSK_CASM3C_IL8: BioMAP Diversity Plus: CASM3C Assay for Interleukin-8 (IL8) Biomarker Activity (AID 2283042); conditions: actives raise or lower the signal; primary human coronary artery smooth muscle cells;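 note: IL-8 protein level quantified by ELISA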
[7] = read-out: Human Leukocyte Antigen - DR isotype (HLADR), HLA-DRA (gene 3122); experiment: BSK_CASM3C_HLADR: BioMAP Diversity Plus: CASM3C Assay for Human Leukocyte Antigen - DR isotype (HLADR) Biomarker Activity (AID 2283043); conditions: actives raise or lower the signal; primary human coronary artery smooth muscle cells;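 note: cell-surface HLA-DR protein level quantified by ELISA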
[8] = BSK_CASM3C_Proliferation: Cell Proliferation Assessment in the BioMAP Diversity Plus: CASM3C Assay (AID 2283047); conditions: primary human coronary artery smooth muscle cells;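 note: sulforhodamine B total protein stain as relative cell number at 560 nm; sub-confluent cells exposed 48 h before staining; fitted both ways against DMSO so gain or loss of cell number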
[9] = BSK_hDFCGF_Proliferation: Cell Proliferation Assessment in the BioMAP Diversity Plus: hDFCGF Assay (AID 2283059); conditions: primary human foreskin fibroblasts;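 note: curves fitted for both rise and fall of signal versus DMSO baseline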
Method in brief: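 This proliferation readout used SRB total-protein staining of human foreskin fibroblasts […], normalized to DMSO with bidirectional curve fitting.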

[10] = read-out: Intercellular Adhesion Molecule 1 (ICAM1), ICAM1 (gene 3383); experiment: BSK_KF3CT_ICAM1: BioMAP Diversity Plus: KF3CT Assay for Intercellular Adhesion Molecule 1 (ICAM1) Biomarker Activity (AID 2283067); conditions: actives raise or lower the signal; primary human keratinocytes with fibroblasts
Method in brief: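 Bidirectional curve fitting against a DMSO baseline was applied to ICAM-1 ELISA signal from primary human skin co-cultures harvested 24 h after treatment, with SRB staining of parallel wells for overt cytotoxicity.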

[11] = read-out: Transforming growth factor beta 1 (TGFb1), TGFB1 (gene 7040); experiment: BSK_KF3CT_TGFb1: BioMAP Diversity Plus: KF3CT Assay for Transforming growth factor beta 1 (TGFb1) Biomarker Activity (AID 2283072); conditions: actives raise or lower the signal; primary human keratinocytes with fibroblasts
Method in brief: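 KF3CT co-culture (keratinocytes + fibroblasts), 24 h exposure → TGF-b1 ELISA → bidirectional fit, DMSO = baseline. Parallel SRB total-protein staining (0.1% SRB, 10% TCA fixation, 560 nm) for cytotoxicity.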

[12] = read-out: Vascular cell adhesion molecule 1 (VCAM1), VCAM1 (gene 7412); experiment: BSK_LPS_VCAM1: BioMAP Diversity Plus: LPS Assay for Vascular cell adhesion molecule 1 (VCAM1) Biomarker Activity (AID 2283086); conditions: actives raise or lower the signal; primary human HUVEC with PBMC
Method in brief: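 Cells are dosed in an LPS-stimulated endothelial/mononuclear co-culture and, after 24 h, VCAM-1 is quantified by ELISA. Activity in either direction is fitted relative to the DMSO negative control.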

[13] = BSK_SAg_PBMCCytotoxicity: PBMC Cytotoxicity Assessment in the BioMAP Diversity Plus: SAg Assay (AID 2283093); conditions: primary human HUVEC with PBMC;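 note: PBMC viability measured as Alamar Blue reduction fluorescence at 546/580 nm; fitted both ways against DMSO so a hit may be loss or gain of signal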
Method in brief: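 Alamar Blue reduction (6 h, ex/em 546/580 nm) read after 90 h culture of PBMC pre-dosed 1 h then stimulated with SEB plus TSST-1, 20 ng/mL each. Gain or loss of signal fitted relative to DMSO.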

[14] = molecular target: human CYP2C9, CYP2C9 (gene 1559) (UniProt P11712); experiment: NVS_ADME_hCYP2C9: NovaScreen (NVS) CYP450-related Enzyme Activity (ADME) Assay for human CYP2C9 (AID 2283108; active = hit-call score of the fitted dose curve at least 0.9, where 1 is the maximum)
Method in brief: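 Fluorescence readout of CYP2C9 activity (SF9-expressed human enzyme) at 0.75 h. The primary screen used 10 uM in duplicate, with concentration-response follow-up for actives; acetonitrile was the negative control.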

[15] = molecular target: human Beta-secretase (BACE), BACE1 (gene 23621) (UniProt P56817); experiment: NVS_ENZ_hBACE: NovaScreen (NVS) Enzymatic Assay for human Beta-secretase (BACE) (AID 2283140; active = hit-call score of the fitted dose curve at least 0.9, where 1 is the maximum;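 note: hits are inhibitors that reduce fluorescent substrate signal versus DMSO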)
[16] = molecular target: human Vascular Endothelial Growth Factor Receptor 1 (VEGFR1), FLT1 (gene 2321) (UniProt P17948); experiment: NVS_ENZ_hVEGFR1: NovaScreen (NVS) Enzymatic Assay for human Vascular Endothelial Growth Factor Receptor 1 (VEGFR1) (AID 2283226; active = hit-call score of the fitted dose curve at least 0.9, where 1 is the maximum)
[17] = molecular target: human Opioid Receptor Mu (Opiate Mu), OPRM1 (gene 4988) (UniProt P35372); experiment: NVS_GPCR_hOpiate_mu: NovaScreen (NVS) G Protein-Coupled Receptor Assay for human Opioid Receptor Mu (Opiate Mu) (AID 2283290; active = hit-call score of the fitted dose curve at least 0.9, where 1 is the maximum;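 note: hits lower bound tracer signal versus DMSO meaning displacement of the ligand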)
Method in brief: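 Here, radioligand binding to CHO-extracted receptor was measured after 2.5 h using filter-based scintillation detection. Initial single-concentration screening used 25 uM in duplicate with plate controls; confirmed actives went to concentration-response testing.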

[18] = molecular target: guinea pig Serotonin, 5-Hydroxytryptamine Receptor 4 (5HT4), HTR4 (gene 100135548) (UniProt O70528); experiment: NVS_GPCR_g5HT4: NovaScreen (NVS) G Protein-Coupled Receptor Assay for guinea pig Serotonin, 5-Hydroxytryptamine Receptor 4 (5HT4) (AID 2283294; active = hit-call score of the fitted dose curve at least 0.9, where 1 is the maximum)
[19] = molecular target: rat Adrenergic Receptor, Alpha 2 (Adra2), Non-selective Binding, Adra2a (gene 25083) (UniProt P22909); experiment: NVS_GPCR_rAdra2_NonSelective: NovaScreen (NVS) G Protein-Coupled Receptor Assay for rat Adrenergic Receptor, Alpha 2 (Adra2), Non-selective Binding (AID 2283299; active = hit-call score of the fitted dose curve at least 0.9, where 1 is the maximum)
Method in brief: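 Filter-based scintillation counting of radioligand binding to rat cortical membrane receptors, measured 1.25 hours post-dosing; loss of signal versus DMSO indicates displacement. Initial single-concentration duplicate at 25 uM, then concentration series.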

[20] = molecular target: rat Somatostatin Receptor (SST), Sstr1 (gene 25033) (UniProt P28646); experiment: NVS_GPCR_rSST: NovaScreen (NVS) G Protein-Coupled Receptor Assay for rat Somatostatin Receptor (SST) (AID 2283314; active = hit-call score of the fitted dose curve at least 0.9, where 1 is the maximum)
Method in brief: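 Single-concentration duplicate screen (25 uM), then concentration-response up to 50 uM for chemicals passing a threshold such as 30% inhibition. Membranes came from rat forebrain. Binding was measured 1 h post-dose by filter radiodetection and scintillation, relative to DMSO.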

Measured: AC50

S=C(S)NCCNC(=S)S.[Mn+2].[S-]C([S-])=NCCN=C([S-])[S-].[Zn+2]
active: [9] 12.8 µM | [12] 10 µM and 13.4 µM | [14] 1.79 µM | [15] 15.5 µM | [16] 16.5 µM | [19] 16.8 µM | [20] 10.1 µM
inactive: all other assays above
